Source: PubChem BioAssay AID445 (National Center for Advancing Translational Sciences (NCATS), 2006)
The list shows a part of the results. Shown are side measurements of this screen, not its main read-out; they come without a call. The list favours compounds with an active or inconclusive main result. Words in brackets tell the shape of the fitted curve; partial curves, single points and poor fits give uncertain potencies.

assay: IkB Signaling; settings: ABC-DLBCL IkBa-CBG/CBR dual luciferase ratio (green luciferase fused to IkBa over red control in OCI-Ly3 lymphoma cells), 4 h; measured here: control luc red channel unless noted
Procedure, shortened: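 Luminescence ratio of IκBα-fused green versus native red beetle luciferase in OCI-Ly3 cells, 4 h post-doxycycline with compound; red signal alone, scaled from basal (0%) to zero light (-100%), flagged nonspecific or cytotoxic effects.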

| SMILES | AC50 |
| --- | --- |
| COc1ccc(OCC(=O)N2CCN(C(=O)COc3ccc(Br)cc3)CC2)cc1 | 12.6 µM [falling, partial curve] |
| O=C(Cn1ncc2ccsc2c1=O)N1CCN(c2ccc(Cl)cc2)CC1 | 25.1 µM [falling, partial curve] |
| Cc1ccc2c(Sc3ccc(Cl)cc3)c(C(=O)N3CCCCC3)[nH]c2c1 | 39.8 µM [falling, single point] |
| CCCOc1ccc(NC(=O)CC2C(=O)N(c3cccc(OC)c3)C(=O)N2CCc2ccncc2)cc1 (stereo not drawn) | 15.8 µM [falling, single point] |
| Nc1nn(S(=O)(=O)c2cccc3nsnc23)cc1-c1ccc(Br)cc1 | 6.31 µM [falling, partial curve] |
| CS(=O)(=O)c1ccc2nc(NC(=O)c3cccs3)sc2c1 | 5.01 µM [falling, partial curve] |
| O=C(Nc1nc(-c2ccco2)cs1)c1ccccc1 | 12.6 µM [falling, partial curve] |
| CCS(=O)(=O)c1ccc(C(=O)N2CCN(c3nc4c(OC)ccc(C)c4s3)CC2)cc1 | 39.8 µM [falling, single point] |
| CCOC(=O)c1nnn(-c2nonc2-n2cccc2)c1CN1CCC(C)CC1 | 20 µM [falling, partial curve] |
| O=C(Nc1nc(-c2ccc3c(c2)OCO3)cs1)c1ccncc1 | 7.94 µM [falling, full curve, poor fit] |
| C1=C(c2ccccc2)CCN(c2nc3ccccc3n3cnnc23)C1 | 15.8 µM [falling, partial curve] |
| Cn1cc(-c2cc3n(n2)CCC(=O)N3CCCC(=O)Nc2ccc(Cl)cc2)c2ccccc21 | 3.16 µM [falling, partial curve, poor fit] |
| O=C1CC(c2ccccc2)Sc2ccccc2N1Cc1ccccc1F (stereo not drawn) | 12.6 µM [falling, partial curve] |
| Cc1c(Nc2ncnc3nc[nH]c23)c(=O)n(-c2ccccc2)n1C | 10 µM [falling, partial curve] |
| COc1ccc(NC(=O)Cn2ccn(-c3ccc(F)c(F)c3)c(=O)c2=O)cc1Cl | 7.94 µM [falling, full curve, poor fit] |
| COc1ccc(CNC(=O)CCC2N=C3c4ccccc4N=C(SCC(=O)NCCc4ccc(OC)c(OC)c4)N3C2=O)cc1 (stereo not drawn) | 7.94 µM [rising, single point] |
| O=c1oc2ccccc2c(N2CCCCC2)c1CN1CCCCC1 | 5.01 µM [falling, partial curve] |
| CC(=O)N1CCCc2cc(S(=O)(=O)N(C)CC(=O)Nc3cccc(Cl)c3C)ccc21 | 25.1 µM [falling, single point] |
| Cc1cc(N2CCOCC2)n2nc(C)c(-c3ccccc3)c2n1 | 2 µM [rising, full curve, poor fit] |
| Cn1c(=O)c2cc(S(=O)(=O)NC(Cc3ccccc3)C(=O)Nc3ccc(F)cc3)ccc2n(C)c1=O (stereo not drawn) | 25.1 µM [falling, partial curve] |
| Cc1ccccc1Cn1c2ccccc2c2cnn(CC(=O)NCc3cccc(Cl)c3)c(=O)c21 | 0.794 µM [falling, full curve] |

Random excerpt: 5 records from the list, in no set order.

| SMILES | AC50 |
| --- | --- |
| CCOC(=O)c1nnn(-c2nonc2-n2cccc2)c1CN1CCC(C)CC1 | 20 µM [falling, partial curve] |
| O=C(Nc1nc(-c2ccc3c(c2)OCO3)cs1)c1ccncc1 | 7.94 µM [falling, full curve, poor fit] |
| Cn1c(=O)c2cc(S(=O)(=O)NC(Cc3ccccc3)C(=O)Nc3ccc(F)cc3)ccc2n(C)c1=O (stereo not drawn) | 25.1 µM [falling, partial curve] |
| Cc1ccccc1Cn1c2ccccc2c2cnn(CC(=O)NCc3cccc(Cl)c3)c(=O)c21 | 0.794 µM [falling, full curve] |
| Cc1c(Nc2ncnc3nc[nH]c23)c(=O)n(-c2ccccc2)n1C | 10 µM [falling, partial curve] |

The listing continues.

| SMILES | AC50 |
| --- | --- |
| COCCN(CCOC)c1ncc(Cl)c(C(=O)c2c(C)cc3ccccn23)n1 | 25.1 µM [falling, single point] |
| O=C1CCNc2cc3ccccc3cc21 | 15.8 µM [falling, partial curve] |
| Cc1nc(-n2nc(C)c(Cc3ccc(Cl)cc3)c2C)sc1C(=O)N1CCC(C)CC1 | 12.6 µM [falling, partial curve] |
| CC(N=Cc1cccc(O)c1O)c1ccccc1 (stereo not drawn) | 6.31 µM [rising, single point] [measured here: IkB-luc green channel] |
| CN(C)C(=O)CSc1cccc2cccnc12 | 7.94 µM [rising, full curve] [measured here: IkB-luc green channel] |
| CCOc1ccc2nc(N(Cc3cccnc3)C(=O)c3cccs3)sc2c1 | 12.6 µM [falling, partial curve] |
| COc1cccc(C(=O)Nc2nc(-c3nnn(-c4ccccc4C(F)(F)F)c3C)ns2)c1 | 15.8 µM [falling, partial curve] |
| Cc1c(Cl)ccc2sc(N3CCN(C(=O)CCS(=O)(=O)c4ccc(F)cc4)CC3)nc12 | 31.6 µM [falling, single point] |
| COc1ccc(-c2nc3ccccc3n2Cc2ccccc2)cc1 | 31.6 µM [falling, partial curve] |
| CC1=C(C(=O)Nc2ccccc2)C(c2ccccn2)n2nc(SCc3ccccc3)nc2N1 (stereo not drawn) | 0.631 µM [falling, single point] |
| Cc1ccc2c(c1)C(c1ccccc1)N(C(=O)COc1ccc(Cl)cc1Cl)CC(=O)N2 (stereo not drawn) | 10 µM [falling, partial curve] |
| COc1ccc(C)c2sc(NC(=O)c3ccc(S(=O)(=O)N4CCOCC4)cc3)nc12 | 10 µM [falling, partial curve, poor fit] |
| COc1ccc(C(=O)Oc2c(Sc3ccccc3)c(C)nn2-c2ccccc2)c(OC)c1 | 7.94 µM [falling, partial curve] |
| COc1cccc(N2CCN(C(=O)c3cnc4c(-c5ccc(F)cc5)c(C)nn4c3C)CC2)c1 | 31.6 µM [falling, single point] |
| COc1ccc(C2Nc3ccccc3-c3cc(C)nn32)c(OC)c1 (stereo not drawn) | 0.00631 µM [falling, full curve, poor fit] |
| CCOc1ccc(NC(=O)c2cc(-c3ccc(C)c(F)c3)on2)c([N+](=O)[O-])c1 | 1.26 µM [rising, full curve] |
| Cc1cccc(C)c1OCCn1c(CCNC(=O)C2CCCCC2)nc2ccccc21 | 25.1 µM [falling, partial curve] |
| Cc1ccc(NCc2nnc(SCCN3CCCCC3)n2CC2CCCO2)c(C)c1 (stereo not drawn) | 10 µM [falling, partial curve] |
| CCN(CC)S(=O)(=O)c1ccc2c(c1)N(CC(=O)Nc1ccc(Cl)cc1)C(=O)C1CCCN21 (stereo not drawn) | 15.8 µM [falling, partial curve] |
| CC(C)(C)c1ccc(C(=O)NCC(c2ccco2)S(=O)(=O)c2ccccc2)cc1 (stereo not drawn) | 39.8 µM [falling, single point] |
| CCOC(=O)Cn1c(=O)c2c(nc(N3CCCCC3)n2Cc2ccccc2)n(C)c1=O | 6.31 µM [falling, partial curve] |

| SMILES | AC50 |
| --- | --- |
| Cc1ccc(C)c(NC(=O)c2cc(S(=O)(=O)N3CCc4ccccc4C3)ccc2F)c1 | 0.316 µM [falling, full curve] |
| CCOc1ccc(N2C(=O)c3cccnc3C2Nc2ccc(Cl)cc2)cc1 (stereo not drawn) | 12.6 µM [falling, partial curve] |
| Fc1ccc(CNc2nc(-c3ccco3)cc(C(F)(F)F)n2)cc1 | 20 µM [falling, partial curve] |
| O=C(CN1CCN(c2nc(-c3ccccc3)cs2)CC1)Nc1ccc2c(c1)OCO2 | 25.1 µM [falling, partial curve] |
| COc1ccc(-c2noc(-c3ccccc3OCC(=O)Nc3ccc(C(C)=O)cc3)n2)cc1 | 31.6 µM [falling, single point] |
| CC(C)Cn1c(SCC(=O)N2CCN(S(=O)(=O)c3ccccc3)CC2)nc2ccccc21 | 6.31 µM [falling, partial curve] |
| COc1ccccc1NC(=O)Cn1c(=O)n(-c2ccccc2Cl)c(=O)c2sc3ccccc3c21 | 3.98 µM [falling, partial curve] |
| O=C(CN1CCN(c2ccc(Cl)cc2)CC1)Nc1ccc(F)cc1 | 12.6 µM [falling, partial curve] |
| CCCCC(=O)Nc1nnc(S(=O)(=O)N2CCCCCC2)s1 | 2.51 µM [falling, partial curve] |
| CC(C)CCn1c(=O)c2ccccc2n2c(CN(C)Cc3ccccc3)nnc12 | 25.1 µM [falling, partial curve] |
| CCN(c1cccc(C)c1)C(CNS(=O)(=O)c1ccccc1)c1ccccc1 (stereo not drawn) | 15.8 µM [falling, partial curve] |
| CCOc1ccc(NC(=O)c2cccc(N3CCCS3(=O)=O)c2)cc1 | 12.6 µM [falling, partial curve] |
| Cc1ccc(C)c(N2CCN(C(=O)CN3C(=O)COc4ccc(S(=O)(=O)N5CCOCC5)cc43)CC2)c1 | 39.8 µM [rising, single point] |
| Cc1ccc(C)c(CNC(=O)C2CCCCN2S(=O)(=O)c2ccc(F)cc2)c1 (stereo not drawn) | 31.6 µM [falling, single point] |
| Cc1cccc(-c2cc(NC(=O)c3ccccc3C)n(-c3ccccc3)n2)c1 | 25.1 µM [falling, single point] |
| O=C(Nc1ccc(F)c(Cl)c1)C1CCCN(c2ncnc3onc(-c4ccc(F)cc4)c23)C1 (stereo not drawn) | 12.6 µM [falling, partial curve] |
| CCSc1ccccc1C(=O)n1nnc2ccccc21 | 6.31 µM [falling, partial curve] |
| Cc1cccc(N2CCN(c3ncnc4onc(-c5ccc(F)cc5)c34)CC2C)c1 (stereo not drawn) | 20 µM [falling, single point] |
| O=C(Nc1ccc(S(=O)(=O)C(F)F)cc1)c1cccc(S(=O)(=O)N2CCOCC2)c1 | 15.8 µM [falling, partial curve] |
| Cc1ccc(NC(=O)CCc2nc3cccnc3n2-c2ccccc2)cc1 | 20 µM [falling, single point] |
| CC(C)(C)C(=O)Nc1ccc(Cl)c(-c2nc3ccccc3[nH]2)c1 | 31.6 µM [falling, single point] |
